Laboratory results from patent US20240351995A1, “(3-PIRYDYL)-QUINAZOLINE” (BASF SE, priority 2021, published 2024).
Some entries share one result that the patent states for a list of compounds.

Legend:
[1] = system: Septoria tritici; assay: Microtest: activity against leaf blotch on wheat caused by Septoria tritici; format: cell-based; conditions: 31 ppm; relative to active compound-free control (100%)
[2] = system: Sclerotinia sclerotiorum; assay: Green house: preventative fungicidal control of white mold on oilseed rape; conditions: 100 g/ha, sprayed one day before inoculation, assessed after 14 days, untreated plants 80% infected
[3] = system: Botrytis cinerea; assay: Green house: preventative fungicidal control of Botrytis cinerea on leaves of green pepper; format: in vivo; conditions: 250 ppm, sprayed one day before inoculation, assessed after 5 days, untreated plants 80% infected
[4] = system: Cercospora beticula; assay: Microtest: activity against Cercospora beticula in the microtiterplate test; format: cell-based; conditions: 31 ppm; relative to active compound-free control (100%)
[5] = system: Fusarium culmorum; assay: Microtest: activity against Fusarium culmorum in the microtiterplate test; format: cell-based; conditions: 31 ppm; relative to active compound-free control (100%)
[6] = system: Sclerotinia sclerotiorum; assay: Green house: preventative fungicidal control of white mold on soybeans; conditions: 250 ppm, sprayed one day before inoculation, assessed after 6 days, untreated plants 80% infected
[7] = system: Cercospora sojina; assay: Microtest: activity against Cercospora sojina in the microtiterplate test; format: cell-based; conditions: 31 ppm; relative to active compound-free control (100%)
[8] = system: Botrytis cinerea; assay: Microtest: activity against the grey mold Botrytis cinerea in the microtiterplate test; format: cell-based; conditions: 31 ppm; relative to active compound-free control (100%)
[9] = system: Pyricularia oryzae; format: cell-based; conditions: 31 ppm; relative to active compound-free control (100%)

Compound	growth of the pathogen (relative growth in %) [1]	growth of the pathogen (% diseased leaf area) [2]	growth of the pathogen (% diseased leaf area) [3]	growth of the pathogen (relative growth in %) [4]	growth of the pathogen (relative growth in %) [5]	growth of the pathogen (% diseased leaf area) [6]	growth of the pathogen (relative growth in %) [7]	growth of the pathogen (relative growth in %) [8]	growth of the pathogen (relative growth in %) [9]
Cc1cc(C2=NC(C)(CC(C)C)N(C)c3c(F)cccc32)cnc1C(F)F (racemic) [Ex-32]	up to 20%	at most 13%	at most 15%	up to 17%	up to 20%	at most 21%	up to 17%	up to 14%	–
Cc1cc(C2=NC(C)(C)N(C)c3c(Cl)cccc32)cnc1C [Ex-22]	up to 20%	at most 13%	at most 15%	up to 17%	up to 20%	–	up to 17%	up to 14%	up to 20%
